According to PubChem BioAssay AID1688 (National Center for Advancing Translational Sciences (NCATS), 2009):
Hit rate of the full screen: of about 220,000 compounds, about 2,400 (1.1%) were called active. This list was built around the results that the source calls inconclusive (neither active nor inactive); the mix of calls is not that of the screen. Calls come from the whole dose curve; as a rule, active = well fitted inhibition curve with a large enough effect; inconclusive = small, poorly fitted or top-dose-only effect, or effect the other way; inactive = no such curve, though single readings can be large or run the other way. A potency beside an inconclusive call is a rough fit, not a confirmed value.

Assay: qHTS Multiplex Assay to Identify Dual Action Probes in a Cell Model of Huntington: Aggregate Formation (GFP); note: nearly all actives have a fitted effect of over 60% in size
Details: PC12 HttQ103-GFP aggregates, Acumen cytometry, 40 h; activity change, negative = inhibition: at 46.1 µM (top of the series) unless noted
Outline: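 Inducible Q103 Huntingtin exon 1–GFP PC12 line, 1500 cells/well in phenol red free DMEM with 5% equine and 5% calf serum. Tebufenozide 100 nM induced expression; compounds titrated; aggregates quantified by cytometry.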
% is set by controls: 0 for no effect and ±100 for the full control effect; potency is the fitted concentration of half-maximal effect.

SMILES	activity change, negative = inhibition	Potency
c1ccc(Cn2c(-c3ccco3)nc3nc4ccccc4nc32)cc1	inactive: -27.1%	–
COc1ccc(O)c(-c2c(-c3ccc(Cl)cc3)n[nH]c2C)c1	inactive: -17.4%	–
CCOC(=O)c1cnc(-n2nc(C)cc2C)nc1Nc1ccc2c(c1)OCO2	–	inconclusive: 0.708 µM [activator, single point]
Fc1ccccc1/C=C1\CCCC2=C1Nc1ncnn1C2c1ccccc1F (stereo not given)	–	inconclusive: 5.62 µM [activator, single point]
CN1C(=O)CC(N2CCC(c3nc4ccccc4[nH]3)CC2)C1=O (stereo not given)	inactive: -7.54%	–
CCc1nc(NCc2ccccc2)c(C#N)c2c1CCCC2	–	inconclusive: 35.5 µM [activator, single point]
Cc1cccc(N2CCN(C(=O)/C=C/c3ccco3)CC2)c1C	–	inconclusive: 14.1 µM [activator, single point]
COc1cc(NC(=S)NC2CC2)c(OC)cc1Cl	–	active: 20 µM
CCNC(=O)[C@@H]1CCCN1C(=O)[C@H](CCCN=C(N)N)NC(=O)[C@H](CC(C)C)NC(=O)[C@@H](Cc1c[nH]c2ccccc12)NC(=O)[C@H](Cc1ccc(O)cc1)NC(=O)[C@H](CO)NC(=O)[C@H](Cc1c[nH]c2ccccc12)NC(=O)[C@H](Cc1cnc[nH]1)NC(=O)[C@@H]1CCC(=O)N1	–	active: 7.94 µM
Cn1cc([N+](=O)[O-])c(C(=O)Nc2cc(Oc3cccnc3)cc([N+](=O)[O-])c2)n1	–	inconclusive: 31.6 µM [inhibitor, single point]
CCn1cc(/C=N\NC(=O)c2ccc(F)cc2)cn1	inactive: -4.58%	–
O=C(CN1CCCC1)Nc1ccccc1Sc1ccccc1	–	inconclusive: 1.26 µM [activator, single point]
CC(CCc1ccccc1)NC(=O)/C=C/c1ccc(Cl)cc1 (stereo not given)	–	inconclusive: 35.5 µM [inhibitor, single point]
CCOC(=O)COc1cc2c(C(=O)OCC)c(C)oc2cc1Br	inactive: 11.3%	–
C=CCN=C(CC)C1=C(O)CCCC1=O	inactive: 18.1%	–
Cc1ccc[n+](CC(=O)Nc2c(Cl)cc(Cl)cc2Cl)c1	–	inconclusive: 2.82 µM [inhibitor, partial curve]
Cc1ccc(C(NC(=O)N2CC(C)OC(C)C2)C(Cl)Cl)cc1F (stereo not given)	–	inconclusive: 15.8 µM [inhibitor, single point]
CCCCNC(=O)NS(=O)(=O)c1ccc(C(=O)OC)o1	–	inconclusive: 2.24 µM [inhibitor, partial curve]
O=C(Nc1ccc2c(c1)OCO2)c1c(F)c(F)c(F)c(F)c1F	–	inconclusive: 8.91 µM [inhibitor, partial curve]
COC(=O)c1ccc(NC(=O)Nc2ccc(F)cc2)cc1	–	inconclusive: 22.4 µM [inhibitor, single point]
O=C(CSC1=N/C(=C/c2ccco2)C(=O)N1c1ccc(OC(F)F)cc1)NC1CCS(=O)(=O)C1 (stereo not given)	–	inconclusive: 12.6 µM [activator, partial curve]
COC(=O)c1ccccc1NC(=O)C1CC(c2ccc(F)cc2)=NO1 (stereo not given)	–	inconclusive: 3.55 µM [activator, single point]
Nc1cc2ccncc2c2ccccc12	–	active: 0.355 µM

Copied from the list.
Potency, O=C(CSC1=N/C(=C/c2ccco2)C(=O)N1c1ccc(OC(F)F)cc1)NC1CCS(=O)(=O)C1 (stereo not given) is entered as inconclusive: 12.6 µM [activator, partial curve]
Potency, CCCCNC(=O)NS(=O)(=O)c1ccc(C(=O)OC)o1 is entered as inconclusive: 2.24 µM [inhibitor, partial curve]

(cont.)

SMILES	activity change, negative = inhibition	Potency
COc1ccc(-c2nnc(Nc3ccc(CC(N)=O)cc3)c3ccccc23)cc1	–	inconclusive: 1.12 µM [inhibitor, single point]
COc1cccc(C(=O)COc2ccccc2-c2ccccc2)c1	–	inconclusive: 35.5 µM [inhibitor, single point]
Cc1cccc(-n2c3nc(=O)[nH]c(=O)c-3cc3c(C)nn(-c4ccccc4)c32)c1C	–	inconclusive: 1.26 µM [inhibitor, single point]
Cc1c(C(=O)N2CCN(c3ccccn3)CC2)oc2ccccc12	–	inconclusive: 35.5 µM [inhibitor, single point]
Cc1ccc(-n2c(Cl)c(Cl)nc(Cl)c2=O)cc1	–	active: 4.47 µM
CC(=O)c1ccc(Oc2nc3c(c(=O)n(C)c(=O)n3C)n2C)cc1	–	inconclusive: 10 µM [inhibitor, partial curve]
CCOC(=O)c1nnc(-c2ccccc2)nc1Sc1c(Cl)cccc1Cl	inactive: -9.65%	–
COc1ccc(C2SCCN2C(=S)Nc2ccc(F)cc2)cc1 (stereo not given)	inactive: -8.14%	–
CC(C)c1ccc(NC(=S)NN(c2ccccc2)c2ccccc2)cc1	inactive: -16.2%	–
CN(c1cccc(NC(=O)COc2ccccc2)c1)S(C)(=O)=O	–	inconclusive: 1.41 µM [inhibitor, partial curve]
Cc1ccc(OCCNC(=O)c2cncc(Br)c2)cc1C	–	inconclusive: 35.5 µM [activator, single point]
Cc1ccc2c(c1)c1ncnc(N3CCN(c4ccccc4)CC3)c1n2C	–	inconclusive: 35.5 µM [inhibitor, single point]
CCOc1ccc(NC(=S)Nc2cc(OC)c(Cl)cc2OC)cc1	–	inconclusive: 35.5 µM [inhibitor, single point]
c1ccc(-c2cc(-c3ccc(N4CCOCC4)cc3)nc3ccccc23)cc1	inactive: 10.9%	–
Cc1nn(-c2cccc(Cl)c2)c2c1C(c1ccncc1)C(C#N)=C(N)O2 (stereo not given)	–	inconclusive: 35.5 µM [inhibitor, single point]
COc1ccccc1OCC#CCNC1CCCCC1C (stereo not given)	–	inconclusive: 0.355 µM [activator, partial curve, poor fit]
C/C(=N\Nc1ccccn1)c1ccc(C#N)cc1	–	inconclusive: 0.794 µM [activator, single point]
Cc1c(C(=O)N2CCOCC2)oc2c1C(=O)CC(C)(C)C2	inactive: -16.9%	–
CC(C)(C)c1ccccc1NC(=O)Cn1cnc2cc([N+](=O)[O-])ccc2c1=O	–	inconclusive: 35.5 µM [activator, single point]
Cc1nn(C)cc1/C=C1\CCC/C(=C\c2cn(C)nc2C)C1=O	–	inconclusive: 3.55 µM [activator, full curve, poor fit]
O=C(Nc1scc(-c2ccccc2)c1C(=O)O)c1ccco1	–	inconclusive: 35.5 µM [inhibitor, single point]
O=C(c1ccc(S(=O)(=O)Cc2cc(F)ccc2F)c([N+](=O)[O-])c1)N1CCCCC1	–	active: 12.6 µM
